log2 fold change data for 36 targets are collected here from the supplement of paper PMC10849652.

Sequences of proteins named here, by UniProt entry; tags and fusion partners are left off. A change or cut given only in a name is not applied to a line headed by its entry.
UniProt Q0VDD7: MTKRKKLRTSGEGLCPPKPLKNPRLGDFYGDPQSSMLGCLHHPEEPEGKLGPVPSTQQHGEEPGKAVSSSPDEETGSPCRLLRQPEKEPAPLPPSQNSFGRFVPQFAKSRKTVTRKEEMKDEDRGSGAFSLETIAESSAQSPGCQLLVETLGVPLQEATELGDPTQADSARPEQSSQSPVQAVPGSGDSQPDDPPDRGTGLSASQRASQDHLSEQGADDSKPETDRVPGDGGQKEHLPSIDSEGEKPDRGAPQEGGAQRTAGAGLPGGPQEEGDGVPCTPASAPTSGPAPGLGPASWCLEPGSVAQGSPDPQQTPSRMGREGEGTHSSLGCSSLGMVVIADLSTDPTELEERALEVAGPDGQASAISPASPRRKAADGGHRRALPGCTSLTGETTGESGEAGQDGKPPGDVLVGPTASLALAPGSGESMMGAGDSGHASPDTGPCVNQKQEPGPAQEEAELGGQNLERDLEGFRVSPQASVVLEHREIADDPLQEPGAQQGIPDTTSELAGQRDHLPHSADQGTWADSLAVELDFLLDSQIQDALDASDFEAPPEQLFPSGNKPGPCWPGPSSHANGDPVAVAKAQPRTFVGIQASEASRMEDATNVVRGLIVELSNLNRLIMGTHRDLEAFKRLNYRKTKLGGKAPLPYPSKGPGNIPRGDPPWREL
UniProt P17655: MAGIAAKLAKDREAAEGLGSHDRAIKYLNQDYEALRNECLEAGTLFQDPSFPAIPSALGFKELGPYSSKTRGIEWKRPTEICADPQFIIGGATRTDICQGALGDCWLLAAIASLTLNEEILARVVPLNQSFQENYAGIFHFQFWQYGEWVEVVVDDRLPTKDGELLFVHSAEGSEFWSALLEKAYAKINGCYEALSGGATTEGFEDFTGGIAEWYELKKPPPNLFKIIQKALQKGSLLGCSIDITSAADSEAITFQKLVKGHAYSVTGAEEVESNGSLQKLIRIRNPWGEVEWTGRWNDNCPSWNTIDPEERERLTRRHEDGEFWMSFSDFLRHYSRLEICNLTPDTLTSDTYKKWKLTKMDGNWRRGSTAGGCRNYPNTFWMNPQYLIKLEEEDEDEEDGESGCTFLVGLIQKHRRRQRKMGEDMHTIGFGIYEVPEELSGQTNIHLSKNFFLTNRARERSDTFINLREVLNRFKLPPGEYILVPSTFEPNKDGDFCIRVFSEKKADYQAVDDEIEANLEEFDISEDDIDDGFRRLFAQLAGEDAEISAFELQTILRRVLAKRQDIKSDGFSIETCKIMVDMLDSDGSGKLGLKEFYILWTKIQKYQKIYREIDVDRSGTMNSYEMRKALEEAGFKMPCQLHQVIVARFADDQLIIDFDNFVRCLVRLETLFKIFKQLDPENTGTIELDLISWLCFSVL
UniProt P40121: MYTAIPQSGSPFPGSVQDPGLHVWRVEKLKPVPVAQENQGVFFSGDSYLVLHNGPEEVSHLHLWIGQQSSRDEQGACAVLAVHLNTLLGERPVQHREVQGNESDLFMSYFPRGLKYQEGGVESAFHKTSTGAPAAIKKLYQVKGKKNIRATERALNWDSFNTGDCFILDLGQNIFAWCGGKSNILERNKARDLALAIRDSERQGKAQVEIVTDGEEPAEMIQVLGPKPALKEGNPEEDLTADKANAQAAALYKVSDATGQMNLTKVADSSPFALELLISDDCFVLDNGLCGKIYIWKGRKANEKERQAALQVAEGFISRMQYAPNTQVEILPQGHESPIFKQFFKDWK
UniProt Q9Y6E2: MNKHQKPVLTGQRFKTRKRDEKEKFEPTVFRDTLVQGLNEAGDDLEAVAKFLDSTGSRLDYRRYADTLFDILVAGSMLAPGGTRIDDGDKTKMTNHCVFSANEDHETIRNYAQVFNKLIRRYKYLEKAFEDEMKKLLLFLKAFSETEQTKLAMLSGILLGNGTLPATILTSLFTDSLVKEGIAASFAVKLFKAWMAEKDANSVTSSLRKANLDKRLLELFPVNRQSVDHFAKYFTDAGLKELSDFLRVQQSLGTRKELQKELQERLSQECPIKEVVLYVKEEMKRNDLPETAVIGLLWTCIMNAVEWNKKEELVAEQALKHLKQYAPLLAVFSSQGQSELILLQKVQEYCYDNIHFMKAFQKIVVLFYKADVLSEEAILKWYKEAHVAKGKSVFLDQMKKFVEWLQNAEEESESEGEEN
UniProt P35219: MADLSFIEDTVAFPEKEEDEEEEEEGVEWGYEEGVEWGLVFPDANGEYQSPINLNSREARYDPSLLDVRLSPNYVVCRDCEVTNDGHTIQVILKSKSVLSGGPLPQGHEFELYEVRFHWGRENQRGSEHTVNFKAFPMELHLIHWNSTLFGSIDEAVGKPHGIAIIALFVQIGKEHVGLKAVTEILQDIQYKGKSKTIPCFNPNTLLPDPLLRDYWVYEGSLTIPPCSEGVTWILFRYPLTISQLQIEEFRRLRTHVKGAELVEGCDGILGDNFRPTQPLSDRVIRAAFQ
UniProt Q9NS00: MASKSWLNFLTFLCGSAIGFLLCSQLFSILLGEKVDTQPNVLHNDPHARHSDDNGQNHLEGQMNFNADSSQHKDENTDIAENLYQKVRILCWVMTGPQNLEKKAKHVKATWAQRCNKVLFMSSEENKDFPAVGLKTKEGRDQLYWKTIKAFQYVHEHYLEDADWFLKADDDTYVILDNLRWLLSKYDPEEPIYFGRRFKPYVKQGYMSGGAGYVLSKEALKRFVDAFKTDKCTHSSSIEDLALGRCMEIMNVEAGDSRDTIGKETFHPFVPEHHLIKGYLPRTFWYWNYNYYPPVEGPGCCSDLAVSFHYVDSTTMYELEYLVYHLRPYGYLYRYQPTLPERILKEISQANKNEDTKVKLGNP
UniProt Q5SNV9: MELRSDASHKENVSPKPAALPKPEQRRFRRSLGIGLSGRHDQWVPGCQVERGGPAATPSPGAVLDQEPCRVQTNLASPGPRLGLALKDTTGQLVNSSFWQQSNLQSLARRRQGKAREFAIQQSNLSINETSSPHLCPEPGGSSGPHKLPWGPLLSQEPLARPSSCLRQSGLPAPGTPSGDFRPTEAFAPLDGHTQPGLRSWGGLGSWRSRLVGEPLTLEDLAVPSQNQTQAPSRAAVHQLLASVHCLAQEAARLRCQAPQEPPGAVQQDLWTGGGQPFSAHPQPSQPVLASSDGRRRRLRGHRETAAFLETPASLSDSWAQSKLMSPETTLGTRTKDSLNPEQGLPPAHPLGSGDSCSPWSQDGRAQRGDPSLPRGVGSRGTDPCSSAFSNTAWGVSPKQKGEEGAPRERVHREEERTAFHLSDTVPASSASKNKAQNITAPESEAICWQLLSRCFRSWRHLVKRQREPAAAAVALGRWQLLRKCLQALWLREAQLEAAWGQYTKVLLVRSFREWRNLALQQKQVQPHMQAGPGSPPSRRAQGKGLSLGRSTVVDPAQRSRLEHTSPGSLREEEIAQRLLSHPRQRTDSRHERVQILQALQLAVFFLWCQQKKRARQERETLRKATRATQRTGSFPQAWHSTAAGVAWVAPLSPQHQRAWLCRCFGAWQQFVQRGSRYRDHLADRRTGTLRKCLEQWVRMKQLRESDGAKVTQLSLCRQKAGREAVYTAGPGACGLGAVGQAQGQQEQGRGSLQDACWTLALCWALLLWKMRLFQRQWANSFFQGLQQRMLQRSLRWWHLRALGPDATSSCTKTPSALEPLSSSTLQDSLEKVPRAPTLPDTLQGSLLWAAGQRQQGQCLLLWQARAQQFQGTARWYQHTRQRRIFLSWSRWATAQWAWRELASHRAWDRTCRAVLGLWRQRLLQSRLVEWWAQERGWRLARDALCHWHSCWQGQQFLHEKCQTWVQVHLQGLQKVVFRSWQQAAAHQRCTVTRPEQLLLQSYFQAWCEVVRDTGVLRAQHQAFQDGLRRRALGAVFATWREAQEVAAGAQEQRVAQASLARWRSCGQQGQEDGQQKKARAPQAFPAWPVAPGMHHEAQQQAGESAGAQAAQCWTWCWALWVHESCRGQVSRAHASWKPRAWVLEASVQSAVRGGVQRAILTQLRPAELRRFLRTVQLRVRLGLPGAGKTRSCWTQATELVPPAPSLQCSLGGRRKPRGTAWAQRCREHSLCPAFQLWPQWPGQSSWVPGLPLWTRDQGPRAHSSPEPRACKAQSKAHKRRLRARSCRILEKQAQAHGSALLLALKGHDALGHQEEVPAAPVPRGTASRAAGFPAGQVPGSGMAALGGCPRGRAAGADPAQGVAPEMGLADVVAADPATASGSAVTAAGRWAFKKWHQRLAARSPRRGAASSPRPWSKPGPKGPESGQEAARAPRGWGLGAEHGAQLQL
UniProt P00915: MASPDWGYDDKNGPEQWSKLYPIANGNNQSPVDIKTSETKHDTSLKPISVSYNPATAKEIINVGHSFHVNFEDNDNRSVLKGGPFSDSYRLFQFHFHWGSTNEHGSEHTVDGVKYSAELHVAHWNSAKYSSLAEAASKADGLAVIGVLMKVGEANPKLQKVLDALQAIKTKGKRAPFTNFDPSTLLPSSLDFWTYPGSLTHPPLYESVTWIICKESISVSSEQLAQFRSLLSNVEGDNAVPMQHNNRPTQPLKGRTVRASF
UniProt Q9H425: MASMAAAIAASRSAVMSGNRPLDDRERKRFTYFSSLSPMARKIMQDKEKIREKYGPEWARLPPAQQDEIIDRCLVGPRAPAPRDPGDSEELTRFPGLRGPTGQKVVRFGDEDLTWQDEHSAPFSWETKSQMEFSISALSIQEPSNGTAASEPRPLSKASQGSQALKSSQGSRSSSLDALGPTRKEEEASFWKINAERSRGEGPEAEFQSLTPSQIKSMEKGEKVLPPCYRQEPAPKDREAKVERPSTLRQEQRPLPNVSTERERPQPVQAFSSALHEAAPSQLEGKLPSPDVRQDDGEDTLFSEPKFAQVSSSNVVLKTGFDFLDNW
UniProt Q96GQ5: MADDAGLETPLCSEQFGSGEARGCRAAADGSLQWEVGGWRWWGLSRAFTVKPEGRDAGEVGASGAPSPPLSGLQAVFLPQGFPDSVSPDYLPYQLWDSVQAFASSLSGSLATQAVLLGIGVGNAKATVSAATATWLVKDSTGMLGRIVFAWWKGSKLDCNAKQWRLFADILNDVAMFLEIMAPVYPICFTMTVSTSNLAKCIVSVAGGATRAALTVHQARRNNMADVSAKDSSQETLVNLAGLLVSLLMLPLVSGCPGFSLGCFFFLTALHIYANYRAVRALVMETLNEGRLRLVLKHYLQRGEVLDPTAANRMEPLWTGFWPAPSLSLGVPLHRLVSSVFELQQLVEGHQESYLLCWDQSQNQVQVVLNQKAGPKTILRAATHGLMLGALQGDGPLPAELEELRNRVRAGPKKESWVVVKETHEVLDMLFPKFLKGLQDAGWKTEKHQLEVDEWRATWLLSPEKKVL
UniProt Q10589, whole entry, looked up: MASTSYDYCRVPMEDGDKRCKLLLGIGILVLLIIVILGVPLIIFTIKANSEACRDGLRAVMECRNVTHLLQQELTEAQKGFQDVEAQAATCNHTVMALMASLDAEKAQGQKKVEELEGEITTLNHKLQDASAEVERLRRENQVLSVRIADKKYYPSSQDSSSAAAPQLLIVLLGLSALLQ
UniProt Q7L1Q6: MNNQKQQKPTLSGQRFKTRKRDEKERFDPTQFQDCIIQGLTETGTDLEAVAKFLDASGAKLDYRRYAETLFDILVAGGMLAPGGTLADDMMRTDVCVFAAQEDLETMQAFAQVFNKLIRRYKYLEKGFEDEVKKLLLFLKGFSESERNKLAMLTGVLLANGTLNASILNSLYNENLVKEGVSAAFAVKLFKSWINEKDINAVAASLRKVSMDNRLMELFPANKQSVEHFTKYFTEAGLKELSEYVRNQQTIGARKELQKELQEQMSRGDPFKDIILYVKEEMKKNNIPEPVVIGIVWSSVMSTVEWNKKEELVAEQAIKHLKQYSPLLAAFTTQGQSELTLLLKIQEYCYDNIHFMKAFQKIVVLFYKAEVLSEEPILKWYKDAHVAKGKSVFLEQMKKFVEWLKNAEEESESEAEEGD
UniProt Q8IXQ3: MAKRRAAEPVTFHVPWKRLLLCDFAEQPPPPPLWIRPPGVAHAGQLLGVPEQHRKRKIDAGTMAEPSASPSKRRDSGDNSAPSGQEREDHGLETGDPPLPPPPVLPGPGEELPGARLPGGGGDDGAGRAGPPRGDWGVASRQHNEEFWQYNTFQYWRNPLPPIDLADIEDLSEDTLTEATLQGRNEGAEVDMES
UniProt Q9H0W9: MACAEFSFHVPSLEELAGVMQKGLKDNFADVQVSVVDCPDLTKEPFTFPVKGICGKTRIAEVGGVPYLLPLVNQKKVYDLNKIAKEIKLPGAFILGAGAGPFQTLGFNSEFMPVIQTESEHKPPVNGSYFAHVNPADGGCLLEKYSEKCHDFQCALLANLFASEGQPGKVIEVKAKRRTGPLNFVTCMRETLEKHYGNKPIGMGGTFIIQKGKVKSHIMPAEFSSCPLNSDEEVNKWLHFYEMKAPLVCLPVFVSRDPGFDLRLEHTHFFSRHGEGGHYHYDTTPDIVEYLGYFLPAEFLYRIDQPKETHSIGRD
UniProt Q8N6N3: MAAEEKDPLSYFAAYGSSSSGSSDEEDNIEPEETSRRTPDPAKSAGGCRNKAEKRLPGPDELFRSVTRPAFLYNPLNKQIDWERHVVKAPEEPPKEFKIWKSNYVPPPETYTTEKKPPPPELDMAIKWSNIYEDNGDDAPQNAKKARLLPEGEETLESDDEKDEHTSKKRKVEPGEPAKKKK

The list shows a part of the results.

Compound in one experiment: CC1=C2C(=CC=C1)N=C(N(C2=O)C3=CC=CC=C3C)CN4C=NC5=C(N=CN=C54)N
The experiment can be described thus: log2 fold change, soluble protein after heating vs DMSO (PISA); higher = thermal stabilisation; K562 cells, 10 uM, 30 min; active = over 0.2 and 3.5 SD of the protein, either way, in both replicates (recomputed). The gist of the method:
(§1)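 Thermal stability values are relative to control samples and come from duplicates. They are expressed as log2 fold changes. For measurement, K562 cells (2×10^6 cells/mL) received 10 μM compound for 30 min, and aliquots were heated for 3 min over 48°C-58°C, pooled, and extracted at 4°C in PBS with 0.5% NP-40. Soluble protein, the supernatant after 21,000xg for 90 min, was quantified by TMTpro 16plex LC-MS/MS with equalised channel sums.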
Turning to C2orf69 (UniProt Q8N8R5), the log2 fold change is inactive: -0.052.

As for CACYBP (UniProt Q9HB71), the log2 fold change is inactive: 0.063.

Take BTD isoform 3 (UniProt P43251): the log2 fold change is inactive: -0.053. As for C1orf174 (UniProt Q8IYL3), the log2 fold change is inactive: -0.048. The same measure, in the same setting: to C17orf75 (UniProt Q9HAS0) belongs inactive: 0.018; to C19orf57 (UniProt Q0VDD7), inactive: 0.012. As to CALB1 (UniProt P05937), the log2 fold change was inactive: -0.045. Still for that read-out and setting: to C2CD5 isoform 4 (UniProt Q86YS7) belongs inactive: 0.131; to BUD31 (UniProt P41223), inactive: 0.051. Still for that read-out and setting: to BTF3L4 (UniProt Q96K17) belongs inactive: 0.028; to CALU isoform 3 (UniProt O43852), inactive: -0.033; to C5orf22 (UniProt Q49AR2), inactive: 0.023. Still for that read-out and setting: to CAPN2 (UniProt P17655) belongs inactive: -0.003; to BUB3 (UniProt O43684), inactive: 0.031; to CAPG (UniProt P40121), inactive: 0.034. As for C1orf109 (UniProt Q9NX04), the log2 fold change is inactive: -0.164. On the same count and under the same terms, to C18orf32 (UniProt Q8TCD1) belongs inactive: 0.028; to C17orf80 (UniProt Q9BSJ5), inactive: -0.042; to BZW2 (UniProt Q9Y6E2), inactive: 0.025. For CAMK2G isoform 6 (UniProt Q13555), the log2 fold change is inactive: 0.044. The same measure, in the same setting: the value for CA8 (UniProt P35219) was inactive: 0.052.

For C1GALT1 (UniProt Q9NS00), the log2 fold change was inactive: -0.011. Still for that read-out and setting: to C1orf167 isoform 2 (UniProt Q5SNV9) belongs inactive: 0.22; to CA1 (UniProt P00915), inactive: 0.019; to C1orf198 (UniProt Q9H425), inactive: -0.019. Same read-out and setting: to C16orf58 (UniProt Q96GQ5) belongs inactive: 0.088; to C5orf51 (UniProt A6NDU8), inactive: 0.136. With CAMSAP1 isoform 3 (UniProt Q5T5Y3), the log2 fold change was inactive: 0.221. Regarding BST2 (UniProt Q10589), the log2 fold change was inactive: -0.012.

Take CAND1 (UniProt Q86VP6): the log2 fold change was inactive: -0.004. The same measure, in the same setting: the value for BUB1 (UniProt O43683) was inactive: 0.112; that for BZW1 isoform 3 (UniProt Q7L1Q6) was inactive: 0.044; that for C9orf40 (UniProt Q8IXQ3) was inactive: 0.039. On the same count and under the same terms, to C11orf54 (UniProt Q9H0W9) belongs inactive: -0.038; to BUD23 isoform 3 (UniProt O43709), inactive: -0.005; to C1orf52 (UniProt Q8N6N3), inactive: 0.014.

Compound in a further experiment: Cc1sc2c(c1C)C(c1ccc(Cl)cc1)=N[C@@H](CC(=O)OC(C)(C)C)c1nnc(C)n1-2
Described as above. The gist of the method:
as §1
Take C2orf69 (UniProt Q8N8R5): the log2 fold change was inactive: 0.002.

Regarding CACYBP (UniProt Q9HB71), the log2 fold change is inactive: -0.024. Still for that read-out and setting: to BTD isoform 3 (UniProt P43251) belongs inactive: 0.013; to C1orf174 (UniProt Q8IYL3), inactive: 0.013; to C17orf75 (UniProt Q9HAS0), inactive: -0.063. On the same count and under the same terms, to CALB1 (UniProt P05937) belongs inactive: -0.068; to C2CD5 isoform 4 (UniProt Q86YS7), inactive: -0.027. Regarding BUD31 (UniProt P41223), the log2 fold change was inactive: -0.018. For BTF3L4 (UniProt Q96K17), the log2 fold change was inactive: -0.004. As to CALU isoform 3 (UniProt O43852), the log2 fold change is inactive: 0.02. With C5orf22 (UniProt Q49AR2), the log2 fold change is inactive: 0.041. In the case of CAPN2 (UniProt P17655), the log2 fold change was inactive: -0.008. Same read-out and setting: to BUB3 (UniProt O43684) belongs inactive: -0.007; to CAPG (UniProt P40121), inactive: -0.039.

Take C1orf109 (UniProt Q9NX04): the log2 fold change is inactive: 0.014.

As to C18orf32 (UniProt Q8TCD1), the log2 fold change was inactive: 0.004.

With C17orf80 (UniProt Q9BSJ5), the log2 fold change was inactive: 0.037. As for BZW2 (UniProt Q9Y6E2), the log2 fold change is inactive: -0.033.

Regarding CAMK2G isoform 6 (UniProt Q13555), the log2 fold change is inactive: 0.096. On the same count and under the same terms, to CA8 (UniProt P35219) belongs inactive: 0.025; to C1GALT1 (UniProt Q9NS00), inactive: 0.013; to CA1 (UniProt P00915), inactive: 0.007. On the same count and under the same terms, the value for C1orf198 (UniProt Q9H425) was inactive: 0.045. For the target C16orf58 (UniProt Q96GQ5), the log2 fold change is inactive: -0.042. On to C5orf51 (UniProt A6NDU8), for which the log2 fold change was inactive: -0.044. Still for that read-out and setting: the value for CAMSAP1 isoform 3 (UniProt Q5T5Y3) was inactive: 0.016; that for BST2 (UniProt Q10589) was inactive: 0.068.

As to CAND1 (UniProt Q86VP6), the log2 fold change was inactive: -0.019. Still for that read-out and setting: to BUB1 (UniProt O43683) belongs inactive: 0.067; to BZW1 isoform 3 (UniProt Q7L1Q6), inactive: -0.044. Take C9orf40 (UniProt Q8IXQ3): the log2 fold change is inactive: -0.062. Still for that read-out and setting: to C11orf54 (UniProt Q9H0W9) belongs inactive: 0.019; to BUD23 isoform 3 (UniProt O43709), inactive: 0.089; to C1orf52 (UniProt Q8N6N3), inactive: -0.01.
